PubChem BioAssay AID743121 – NCATS – 2013
This is a random part of about 26,000 reagents tested. Of all reagents, 167 (0.63%) are marked active. 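Calls are per gene from RSA p-values that are not deposited; an individual active-marked siRNA can sensitise only weakly.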 A number with no mark means an inactive call. The numbers tell different reagents against one gene apart. Further read-outs or replicates are left out here.

- Assay: 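Partners whose loss is lethal together with topoisomerase I blockade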 (primary screen)
- Cells: MDA-MB-231 cells, a human breast cancer line
- Reagent: single siRNA against human genes, 20 nM siRNA (0.8 pmol per well)
- Timing: 120 h (drug added 48 h after transfection, read 72 h later)
- Challenge: camptothecin 20 nM (about EC30) for 72 h; vehicle 0.1% DMSO in parallel plates
- Measurement: 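CellTiter-Glo ATP signal, scaled to control siRNA as percent viability; sensitisation given as log2 of untreated divided by camptothecin-treated viability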
- Reading the numbers: log2 vehicle/camptothecin viability: higher = stronger sensitisation to camptothecin
- Call rule: 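Active genes have an RSA gene-level p-value below 0.001, computed from the ratios of their separate siRNAs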

gene symbol	siRNA no.	log2 vehicle/camptothecin viability
PPME1	1	-0.0109
PPME1	2	-0.167
PPME1	3	0.0552
PPME1	4	-0.301
IL6	1	0.137
IL6	2	-0.0998
IL6	3	-0.294
IL6	4	-0.279
USP36	1	0.166
USP36	2	-0.459
USP36	3	-0.105
USP36	4	-0.0698
PRB3	1	-0.548
PRB3	2	-0.299
PRB3	3	-0.462
PRB3	4	0.00107
GSDME	1	-0.172
GSDME	2	0.0185
GSDME	3	-0.413
GSDME	4	0.149
UBR7	1	0.171
UBR7	2	-0.194
UBR7	3	-0.236
RASSF4	1	-0.0224
RASSF4	2	0.244
RASSF4	3	-0.402
RASSF4	4	-0.198
OR2J2	1	-0.358
OR2J2	2	0.145
OR2J2	3	0.0584
OR2J2	4	0.234

Records above whose target name begins with U or u (7):
gene symbol	siRNA no.	log2 vehicle/camptothecin viability
USP36	1	0.166
USP36	2	-0.459
USP36	3	-0.105
USP36	4	-0.0698
UBR7	1	0.171
UBR7	2	-0.194
UBR7	3	-0.236
